Here are results for one compound from patent publication USRE49918E1, “Cytotoxic benzodiazepine derivatives” (priority 2011, dated 2024).

The subject of this data set is HL60/QC tumors. Put plainly: In vivo efficacy in HL60/QC tumor bearing nude mice. As to conditions: HL60/QC model. On the procedure: In this study, the anti-tumor activity of huMY9-6-SPDB-1f was investigated in female nude mice bearing HL60/QC tumors, a human acute myeloid leukemia model. HL60/QC tumor cells, 2×10^6 cells/mouse were subcutaneously inoculated at a volume of 0.1 mL/mouse in the area over the right shoulder of female athymic nude mice, 5 weeks of age. Eight days after tumor cell inoculation mice were randomized into groups (n=6 per group) by tumor volume. Treatment was initiated the day of randomization, and groups included a control group dosed with PBS (200 μL/injection), or a single treatment at various doses (5 to 100 μg/kg) of huMY9-6-SPDB-1f (50 μg/kg 1f dose corresponded to 2.5 mg/kg antibody dose). […] The minimum effective dose was estimated to be 20 μg/kg, which is about 35-fold lower that the maximum tolerated dose.
To compare in vivo efficacy of the subject conjugates prepared with or without an imine reactive group, huMy9-6-Drug 2 were formulated with or without 50 μM sodium bisulfite, and the conjugates were used to treat mice bearing HL60-QC tumor xenografts.

Consider `CNC(=O)CCCSSC(C)(C)CN(CCOCCOCCOC)c1cc(COc2cc3c(cc2OC)C(=O)N2c4ccccc4C[C@H]2C=N3)cc(COc2cc3c(cc2OC)C(=O)N2c4ccccc4C[C@H]2CN3)c1` [huMy9-6-SPDB-1f], for which the “minimum effective dose fold lower than the maximum tolerated dose” value is given as “at least 35 fold”. Moreover, under “listed as huMY9-6-SPDB-1f”, the “minimum effective dose fold lower than the maximum tolerated dose” value is “about 35 fold”.
